Assay results reported in US20240108602A1, “TREATMENT OF MENTAL DISORDERS” (GH Research Ireland Limited, priority 2022, published 2024).
Some results were stated once for a whole list of compounds, not compound by compound.

Test: Daily Infant Dosage (DID) and Relative Infant Dose (RID) calculated from breast milk concentrations
Settings: 18 mg or 25 mg as single or final dose

With `COc1ccc2[nH]cc(CC(=O)O)c2c1` [5-MIAA, 5-methoxyindole-3-acetic acid] the “Relative Infant Dose (RID), linear extrapolation to higher doses” value was “below 10%”.
